In patent publication US20260167620A1, “MULTIFUNCTIONAL COMPOUND CAPABLE OF DEGRADING BTK KINASE, AND COMPOSITION AND USE” (HANGZHOU HEALZEN THERAPEUTICS CO., LTD., priority 2021, published 2026):
pIC50: −log10 of the molar value. The structures given here were assigned with low confidence; some may be wrong.

The chains behind the UniProt entries cited, without tags or fusion partners.
UniProt Q06187, whole entry: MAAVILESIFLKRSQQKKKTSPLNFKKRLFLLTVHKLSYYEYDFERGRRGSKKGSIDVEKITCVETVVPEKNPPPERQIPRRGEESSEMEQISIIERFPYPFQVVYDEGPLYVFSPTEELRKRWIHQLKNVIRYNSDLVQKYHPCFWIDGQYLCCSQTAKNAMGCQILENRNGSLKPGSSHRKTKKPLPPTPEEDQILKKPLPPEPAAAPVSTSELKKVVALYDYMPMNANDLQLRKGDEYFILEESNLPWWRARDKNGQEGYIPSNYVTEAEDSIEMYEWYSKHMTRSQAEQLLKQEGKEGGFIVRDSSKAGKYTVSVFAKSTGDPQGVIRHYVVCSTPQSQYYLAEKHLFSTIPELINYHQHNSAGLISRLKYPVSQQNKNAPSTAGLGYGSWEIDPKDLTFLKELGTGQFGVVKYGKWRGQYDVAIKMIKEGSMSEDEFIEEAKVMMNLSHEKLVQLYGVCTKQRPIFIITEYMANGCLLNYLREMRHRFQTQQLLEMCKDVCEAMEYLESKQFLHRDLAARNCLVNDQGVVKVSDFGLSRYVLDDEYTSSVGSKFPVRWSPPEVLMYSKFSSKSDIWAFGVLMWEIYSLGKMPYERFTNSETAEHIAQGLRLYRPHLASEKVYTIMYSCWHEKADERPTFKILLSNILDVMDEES

Experiments:
BTK = BTK (Homo sapiens, UniProt Q06187); test: BTK degradation activity test in Mino cells (Westernblot or Elisa); assay type: cell-based; details: 24-72 h incubation
Description: The Mino cell line cells are 0.5˜1 million/well in 6-well plates. The compounds are diluted to different concentrations, added to the plate, and after 24-72 h of incubation, the cells are collected. After the cells were lysed, the total protein concentration in each well was determined with a BCA kit. The amount of BTK is determined using the Westernblot or Elisa method.

OCI-LY10 cells = test: Inhibitory activity on OCI-LY10 cell proliferation (MTS); details: read-out: OCI-ly10 IC50, 72 h or 168 h
Description: The anti-tumor efficacy of the compounds was tested by measuring their inhibitory effects on OCI-LY10 and Mino cell proliferation. OCI-LY10 and Mino cells were cultured in RPM-1640 medium containing […] fetal calf serum. OCI-LY10 and Mino cells were digested, inoculated in a 96-well plate at a cell concentration of 10000 cells/well, and incubated overnight at 37° C., 5% CO2. Compounds of different concentrations (1000 nM, 4-fold dilution, 8 points) were added to the 96-well plate and incubated for 72 h or 168 h at 37° C. and […], and then 20 μL of MTS was added to each well. After incubation for 2 h, 25 μl of 10% SDS was added to each well to terminate the reaction. The absorbance at 490 nm and 650 nm were measured with a microplate reader. IC50 was calculated using GraphPad Prism 5.0.

| SMILES | DC50 (BTK) [nM] | pIC50 (OCI-LY10 cells) |
| --- | --- | --- |
| NC(=O)c1nnc(N2CCCCC2)nc1Nc1ccc(C2CCN(C(=O)C3CN(c4ccc5c(c4)C(=O)N(C4CCC(=O)NC4=O)C5=O)C3)CC2)cc1 (centres unmarked) | < 10 | – |
| CC(C)(C)C(=O)OCN1C(=O)CCC(N2C(=O)c3ccc(N4CCC(CN5CCC(c6ccc(Nc7nc(N8CCCCC8)ncc7C(N)=O)cc6)CC5)C4)cc3C2=O)C1=O (centres unmarked) | < 10 | – |
| NC(=O)c1cnc(N2CCCCC2)nc1Nc1ccc(N2CCC(CN3CCN(c4ccc5c(c4)C(=O)N(C4CCC(=O)NC4=O)C5=O)CC3)CC2)c(F)c1 (centres unmarked) | < 10 | – |
| NC(=O)c1nnc(N2CCCCC2)nc1Nc1ccc(N2CCC(CN3CCN(c4ccc(C5CCC(=O)NC5=O)cc4)CC3)CC2)c(F)c1 (centres unmarked) | < 10 | 8.86 |
